In the supplement of paper PMC10849652:
This is one part of the list.

Chains of the proteins cited; added tags and fusions are not shown. Lines headed by an entry give the natural chain unless they say otherwise; changes in a name come on top.
UniProt P10155: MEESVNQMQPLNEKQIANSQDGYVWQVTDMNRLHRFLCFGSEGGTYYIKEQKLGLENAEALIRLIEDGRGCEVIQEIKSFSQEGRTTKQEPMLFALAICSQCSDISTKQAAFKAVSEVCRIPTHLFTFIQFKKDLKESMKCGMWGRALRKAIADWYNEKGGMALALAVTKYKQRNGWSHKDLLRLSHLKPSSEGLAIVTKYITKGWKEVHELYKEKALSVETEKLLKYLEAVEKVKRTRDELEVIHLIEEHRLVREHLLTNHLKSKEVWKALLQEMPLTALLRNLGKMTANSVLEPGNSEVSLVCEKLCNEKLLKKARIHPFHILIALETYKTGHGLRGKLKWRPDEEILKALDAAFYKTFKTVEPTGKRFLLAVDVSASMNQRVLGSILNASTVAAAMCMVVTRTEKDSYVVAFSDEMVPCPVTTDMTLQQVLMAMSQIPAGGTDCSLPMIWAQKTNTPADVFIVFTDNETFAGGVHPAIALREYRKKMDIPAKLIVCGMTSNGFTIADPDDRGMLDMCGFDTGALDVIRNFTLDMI
UniProt P78345: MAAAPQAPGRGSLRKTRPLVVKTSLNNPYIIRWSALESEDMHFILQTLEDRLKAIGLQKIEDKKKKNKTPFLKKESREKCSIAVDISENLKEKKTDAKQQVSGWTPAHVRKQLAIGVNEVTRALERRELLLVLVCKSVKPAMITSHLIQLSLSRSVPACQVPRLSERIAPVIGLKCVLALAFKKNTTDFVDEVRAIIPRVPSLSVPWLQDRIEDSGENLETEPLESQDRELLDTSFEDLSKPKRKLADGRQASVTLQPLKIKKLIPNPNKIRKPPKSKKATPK
UniProt P08922: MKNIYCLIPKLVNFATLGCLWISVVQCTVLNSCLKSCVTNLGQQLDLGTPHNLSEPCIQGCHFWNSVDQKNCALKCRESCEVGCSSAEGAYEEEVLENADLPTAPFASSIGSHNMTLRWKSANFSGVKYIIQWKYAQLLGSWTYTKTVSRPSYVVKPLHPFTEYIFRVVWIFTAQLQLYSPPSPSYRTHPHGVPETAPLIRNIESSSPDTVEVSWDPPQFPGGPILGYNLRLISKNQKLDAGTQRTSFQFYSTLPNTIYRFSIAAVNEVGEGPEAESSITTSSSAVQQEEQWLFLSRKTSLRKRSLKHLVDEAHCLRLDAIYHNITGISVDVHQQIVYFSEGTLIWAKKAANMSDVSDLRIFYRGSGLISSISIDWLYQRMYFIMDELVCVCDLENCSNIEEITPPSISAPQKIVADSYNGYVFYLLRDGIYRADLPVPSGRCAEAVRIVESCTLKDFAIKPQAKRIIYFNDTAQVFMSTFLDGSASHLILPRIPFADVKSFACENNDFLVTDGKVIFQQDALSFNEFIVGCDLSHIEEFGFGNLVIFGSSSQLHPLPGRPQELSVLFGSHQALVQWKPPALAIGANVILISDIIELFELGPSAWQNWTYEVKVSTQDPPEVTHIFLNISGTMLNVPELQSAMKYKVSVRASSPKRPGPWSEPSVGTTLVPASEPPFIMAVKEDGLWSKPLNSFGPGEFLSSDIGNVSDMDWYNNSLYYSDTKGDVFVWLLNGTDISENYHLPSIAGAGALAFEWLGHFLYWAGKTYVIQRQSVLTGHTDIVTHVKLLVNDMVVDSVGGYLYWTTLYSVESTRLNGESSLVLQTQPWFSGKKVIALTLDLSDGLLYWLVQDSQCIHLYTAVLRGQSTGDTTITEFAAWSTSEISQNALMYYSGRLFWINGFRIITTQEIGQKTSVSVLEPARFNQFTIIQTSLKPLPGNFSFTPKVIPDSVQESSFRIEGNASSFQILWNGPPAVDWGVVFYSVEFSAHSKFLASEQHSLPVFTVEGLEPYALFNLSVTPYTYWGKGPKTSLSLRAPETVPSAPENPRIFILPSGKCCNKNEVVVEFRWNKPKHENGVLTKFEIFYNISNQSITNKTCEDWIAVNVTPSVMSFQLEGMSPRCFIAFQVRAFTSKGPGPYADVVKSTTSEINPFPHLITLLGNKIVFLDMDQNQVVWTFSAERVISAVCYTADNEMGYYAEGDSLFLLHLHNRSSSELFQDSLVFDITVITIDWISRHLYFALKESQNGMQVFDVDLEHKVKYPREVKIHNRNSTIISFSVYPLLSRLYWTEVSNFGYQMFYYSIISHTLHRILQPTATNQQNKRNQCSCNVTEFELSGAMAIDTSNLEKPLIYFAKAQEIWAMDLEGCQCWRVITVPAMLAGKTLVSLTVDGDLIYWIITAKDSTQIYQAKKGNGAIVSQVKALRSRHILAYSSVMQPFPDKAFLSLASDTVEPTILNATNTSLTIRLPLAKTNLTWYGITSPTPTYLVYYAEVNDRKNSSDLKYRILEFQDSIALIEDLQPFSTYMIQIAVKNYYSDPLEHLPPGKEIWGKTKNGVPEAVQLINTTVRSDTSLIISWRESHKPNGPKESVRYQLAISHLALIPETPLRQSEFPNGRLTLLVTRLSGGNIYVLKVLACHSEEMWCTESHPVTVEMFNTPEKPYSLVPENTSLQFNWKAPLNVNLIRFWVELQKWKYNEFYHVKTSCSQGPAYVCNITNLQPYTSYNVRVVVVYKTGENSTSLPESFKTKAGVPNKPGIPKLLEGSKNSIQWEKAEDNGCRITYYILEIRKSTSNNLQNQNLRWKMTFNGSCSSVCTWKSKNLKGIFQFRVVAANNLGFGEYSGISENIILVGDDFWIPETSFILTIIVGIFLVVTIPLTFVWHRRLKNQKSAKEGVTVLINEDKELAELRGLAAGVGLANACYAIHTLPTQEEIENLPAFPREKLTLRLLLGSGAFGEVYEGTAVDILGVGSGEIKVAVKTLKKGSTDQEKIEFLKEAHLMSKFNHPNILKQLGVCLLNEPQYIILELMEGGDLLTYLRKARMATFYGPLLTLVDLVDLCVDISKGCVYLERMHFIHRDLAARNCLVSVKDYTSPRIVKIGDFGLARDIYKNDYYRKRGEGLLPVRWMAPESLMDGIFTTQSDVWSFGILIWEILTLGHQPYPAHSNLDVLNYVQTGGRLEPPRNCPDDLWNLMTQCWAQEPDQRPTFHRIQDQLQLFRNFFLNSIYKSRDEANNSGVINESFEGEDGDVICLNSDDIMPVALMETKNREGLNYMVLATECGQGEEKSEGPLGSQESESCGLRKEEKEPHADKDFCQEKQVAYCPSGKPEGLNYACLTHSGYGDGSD
UniProt P05387, whole entry, looked up: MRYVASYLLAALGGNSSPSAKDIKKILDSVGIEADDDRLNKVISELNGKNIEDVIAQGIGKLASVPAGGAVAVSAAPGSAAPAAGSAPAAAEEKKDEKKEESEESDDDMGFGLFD
UniProt P10301: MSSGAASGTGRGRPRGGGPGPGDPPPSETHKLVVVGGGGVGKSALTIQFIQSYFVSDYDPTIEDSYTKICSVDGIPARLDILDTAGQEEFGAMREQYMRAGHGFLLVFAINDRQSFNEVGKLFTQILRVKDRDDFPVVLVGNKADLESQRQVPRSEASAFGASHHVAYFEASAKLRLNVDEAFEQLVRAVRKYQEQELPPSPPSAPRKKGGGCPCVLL
UniProt Q9BWH6: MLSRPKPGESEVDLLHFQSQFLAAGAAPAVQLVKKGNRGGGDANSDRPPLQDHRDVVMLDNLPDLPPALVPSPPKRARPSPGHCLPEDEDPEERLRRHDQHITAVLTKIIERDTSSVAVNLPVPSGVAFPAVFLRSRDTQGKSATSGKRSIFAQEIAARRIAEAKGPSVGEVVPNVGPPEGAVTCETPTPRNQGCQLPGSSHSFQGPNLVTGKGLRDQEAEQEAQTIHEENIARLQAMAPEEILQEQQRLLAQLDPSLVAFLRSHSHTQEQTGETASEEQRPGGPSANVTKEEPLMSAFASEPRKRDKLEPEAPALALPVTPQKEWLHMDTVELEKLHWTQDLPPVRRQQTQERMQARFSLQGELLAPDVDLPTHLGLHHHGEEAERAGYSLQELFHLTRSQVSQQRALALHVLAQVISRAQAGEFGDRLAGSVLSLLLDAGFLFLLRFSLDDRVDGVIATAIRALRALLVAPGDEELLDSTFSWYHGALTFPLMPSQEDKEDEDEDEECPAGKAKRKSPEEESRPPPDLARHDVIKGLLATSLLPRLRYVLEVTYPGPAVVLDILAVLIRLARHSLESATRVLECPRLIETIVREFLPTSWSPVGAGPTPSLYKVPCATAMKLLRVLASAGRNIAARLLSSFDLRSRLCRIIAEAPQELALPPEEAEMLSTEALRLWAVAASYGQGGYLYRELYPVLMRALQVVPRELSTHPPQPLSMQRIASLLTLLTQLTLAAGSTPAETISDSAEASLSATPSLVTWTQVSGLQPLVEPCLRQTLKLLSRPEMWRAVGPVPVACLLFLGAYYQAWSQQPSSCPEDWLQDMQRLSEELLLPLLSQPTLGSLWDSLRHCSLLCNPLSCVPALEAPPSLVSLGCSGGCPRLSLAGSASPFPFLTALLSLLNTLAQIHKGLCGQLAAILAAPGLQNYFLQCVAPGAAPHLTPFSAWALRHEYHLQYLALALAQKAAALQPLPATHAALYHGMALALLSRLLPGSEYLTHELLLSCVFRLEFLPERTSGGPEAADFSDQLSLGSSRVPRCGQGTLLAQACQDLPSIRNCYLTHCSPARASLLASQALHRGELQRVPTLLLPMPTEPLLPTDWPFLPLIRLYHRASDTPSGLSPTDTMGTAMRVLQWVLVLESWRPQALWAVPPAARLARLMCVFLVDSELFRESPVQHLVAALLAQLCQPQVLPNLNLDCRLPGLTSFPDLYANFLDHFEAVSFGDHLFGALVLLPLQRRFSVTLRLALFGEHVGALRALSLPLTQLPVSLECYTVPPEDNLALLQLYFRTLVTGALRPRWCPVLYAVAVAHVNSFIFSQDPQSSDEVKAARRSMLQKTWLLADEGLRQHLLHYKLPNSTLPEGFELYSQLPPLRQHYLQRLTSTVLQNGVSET
UniProt P15927: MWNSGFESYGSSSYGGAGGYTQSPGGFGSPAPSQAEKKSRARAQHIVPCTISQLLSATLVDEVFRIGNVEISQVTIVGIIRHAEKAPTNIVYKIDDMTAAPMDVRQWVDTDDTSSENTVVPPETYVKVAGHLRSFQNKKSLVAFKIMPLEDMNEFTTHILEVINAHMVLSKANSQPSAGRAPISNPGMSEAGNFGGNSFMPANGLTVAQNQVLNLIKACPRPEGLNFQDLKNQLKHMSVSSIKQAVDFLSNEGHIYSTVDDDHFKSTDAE
UniProt Q7LG56, whole entry, looked up: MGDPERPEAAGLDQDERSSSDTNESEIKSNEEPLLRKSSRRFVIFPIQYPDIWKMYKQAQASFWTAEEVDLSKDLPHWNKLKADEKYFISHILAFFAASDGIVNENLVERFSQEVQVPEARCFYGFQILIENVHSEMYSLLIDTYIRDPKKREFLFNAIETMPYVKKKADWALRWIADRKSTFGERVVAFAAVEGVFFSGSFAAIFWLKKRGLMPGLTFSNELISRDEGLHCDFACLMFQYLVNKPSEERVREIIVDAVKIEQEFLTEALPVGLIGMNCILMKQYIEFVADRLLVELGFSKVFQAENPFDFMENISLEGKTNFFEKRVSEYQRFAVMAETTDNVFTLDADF

compound: c1cn2cc(-c3ccc4cn[nH]c4c3)nc(Nc3ccc(N4CCOCC4)cc3)c2n1 [entospletinib]; experiment: log2 fold change, soluble protein after heating vs DMSO (PISA); higher = thermal stabilisation; K562 cells, 10 uM, 30 min; active = over 0.2 and 3.5 SD of the protein, either way, in both replicates (recomputed)
Summary of the method: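 K562 cells at 2×10^6 cells/mL were treated with 10 μM compound for 30 min. Aliquots were heated for 3 min across 48°C-58°C, pooled, and extracted in PBS with 0.5% NP-40 at 4°C; soluble protein was the supernatant after 21,000xg for 90 min. Soluble protein was quantified by TMTpro 16plex LC-MS/MS with channel sums equalised, and reported as log2 fold change in thermal stability against DMSO controls, with values from duplicates.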

log2 fold change, inactive:
RO60 (UniProt P10155) 0.04
RPS6 (UniProt P62753) 0.113
RPP38 (UniProt P78345) -0.011
RPSA (UniProt P08865) 0.042
RPL7L1 (UniProt Q6DKI1) 0.205
RPL30 (UniProt P62888) 0.123
RPL17 isoform 3 (UniProt P18621) 0.296
ROS1 (UniProt P08922) -0.241
RPLP2 (UniProt P05387) 0.061
RPL26L1 (UniProt Q9UNX3) 0.097
RPL7A (UniProt P62424) 0.198
RPL3 (UniProt P39023) 0.114
RRAS (UniProt P10301) 0
RPL9 (UniProt P32969) 0.103
RPL5 (UniProt P46777) 0.147
RPAP1 (UniProt Q9BWH6) -0.009
RPL13A (UniProt P40429) 0.074
RPA2 isoform 3 (UniProt P15927) -0.026
RPL22L1 (UniProt Q6P5R6) 0.055
RRM2B isoform 6 (UniProt Q7LG56) 0.033
RPS29 (UniProt P62273) 0.226
RPL21 (UniProt P46778) 0.175
RPL18 (UniProt Q07020) 0.145

Two entries drawn at random from the list so far, as already listed:
log2 fold change, inactive:
RPL3 (UniProt P39023) 0.114
RPA2 isoform 3 (UniProt P15927) -0.026
